From doi:10.1101/2021.05.03.442391
No constants are given. Whether binding was seen depends on the method and setting. Binding seen in cells or lysates may run through a third protein. Some results given as binding are weak or reduced against the parent protein; the word gives no strength.

By UniProt entry, the sequences of proteins in these tests, tags left out.
UniProt Q8CG47: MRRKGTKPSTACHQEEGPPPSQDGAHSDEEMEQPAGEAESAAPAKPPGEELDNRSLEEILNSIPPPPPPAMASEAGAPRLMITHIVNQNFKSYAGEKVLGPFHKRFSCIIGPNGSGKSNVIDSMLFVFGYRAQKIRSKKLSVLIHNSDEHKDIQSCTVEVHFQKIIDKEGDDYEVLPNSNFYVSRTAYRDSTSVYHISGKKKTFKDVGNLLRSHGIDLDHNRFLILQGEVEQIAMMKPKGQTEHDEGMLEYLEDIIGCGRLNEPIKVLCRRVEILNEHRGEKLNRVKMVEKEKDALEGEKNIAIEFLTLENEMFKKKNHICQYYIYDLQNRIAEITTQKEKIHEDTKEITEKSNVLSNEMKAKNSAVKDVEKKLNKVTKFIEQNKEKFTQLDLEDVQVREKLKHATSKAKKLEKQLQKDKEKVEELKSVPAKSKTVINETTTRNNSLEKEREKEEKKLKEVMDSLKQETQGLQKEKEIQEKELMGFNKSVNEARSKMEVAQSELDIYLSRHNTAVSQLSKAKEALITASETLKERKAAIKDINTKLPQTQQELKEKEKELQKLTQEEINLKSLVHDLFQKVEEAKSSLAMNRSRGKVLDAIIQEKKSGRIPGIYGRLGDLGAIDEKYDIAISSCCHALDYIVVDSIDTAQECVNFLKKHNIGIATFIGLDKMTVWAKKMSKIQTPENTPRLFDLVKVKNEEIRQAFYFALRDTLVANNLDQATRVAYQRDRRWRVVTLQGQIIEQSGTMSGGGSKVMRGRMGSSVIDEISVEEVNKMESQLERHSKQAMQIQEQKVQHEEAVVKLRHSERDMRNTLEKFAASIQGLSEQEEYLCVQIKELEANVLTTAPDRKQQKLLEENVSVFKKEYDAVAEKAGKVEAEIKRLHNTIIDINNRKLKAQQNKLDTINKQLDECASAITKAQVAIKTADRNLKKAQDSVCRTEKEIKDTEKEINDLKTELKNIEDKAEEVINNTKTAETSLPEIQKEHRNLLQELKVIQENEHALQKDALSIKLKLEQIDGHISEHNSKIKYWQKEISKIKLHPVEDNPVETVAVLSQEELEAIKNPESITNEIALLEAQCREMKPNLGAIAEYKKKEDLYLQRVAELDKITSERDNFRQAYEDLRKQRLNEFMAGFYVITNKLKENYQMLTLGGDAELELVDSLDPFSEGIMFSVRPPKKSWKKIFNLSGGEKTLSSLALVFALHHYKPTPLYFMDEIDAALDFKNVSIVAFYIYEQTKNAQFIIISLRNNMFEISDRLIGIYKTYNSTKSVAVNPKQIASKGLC

Target: T1, retinoblastoma-associated protein (RB) (mouse (endogenous in J1 ESCs)) (UniProt P13405)
T1 sequence: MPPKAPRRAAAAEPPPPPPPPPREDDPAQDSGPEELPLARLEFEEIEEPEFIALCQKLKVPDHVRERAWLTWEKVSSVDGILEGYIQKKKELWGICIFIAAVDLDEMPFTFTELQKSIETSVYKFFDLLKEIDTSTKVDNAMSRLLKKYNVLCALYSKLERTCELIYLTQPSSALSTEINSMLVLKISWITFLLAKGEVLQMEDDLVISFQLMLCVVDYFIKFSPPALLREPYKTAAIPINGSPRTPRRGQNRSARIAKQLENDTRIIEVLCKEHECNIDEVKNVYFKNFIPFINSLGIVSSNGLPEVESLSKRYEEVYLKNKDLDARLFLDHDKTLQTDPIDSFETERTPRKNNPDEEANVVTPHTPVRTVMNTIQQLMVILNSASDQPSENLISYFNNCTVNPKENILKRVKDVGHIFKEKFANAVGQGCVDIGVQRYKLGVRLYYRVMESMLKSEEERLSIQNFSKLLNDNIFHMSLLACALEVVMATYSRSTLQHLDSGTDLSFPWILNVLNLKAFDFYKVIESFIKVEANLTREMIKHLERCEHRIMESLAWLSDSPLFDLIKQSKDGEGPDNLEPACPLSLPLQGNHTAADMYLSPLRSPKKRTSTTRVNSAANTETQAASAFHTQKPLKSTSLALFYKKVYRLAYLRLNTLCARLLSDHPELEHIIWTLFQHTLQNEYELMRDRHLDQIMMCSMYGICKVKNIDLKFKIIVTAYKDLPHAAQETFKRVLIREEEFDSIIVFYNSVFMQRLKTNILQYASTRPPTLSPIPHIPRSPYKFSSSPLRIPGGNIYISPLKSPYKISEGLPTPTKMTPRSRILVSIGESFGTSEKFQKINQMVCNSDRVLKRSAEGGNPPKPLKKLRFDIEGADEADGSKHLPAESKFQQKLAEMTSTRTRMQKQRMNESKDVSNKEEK
Experiment: co-IP

With SMC4 (from UniProt Q8CG47 1-1286) the binding was “binds”.
